Experimental data from US20030165837A1, “Method for screening DNA binding” (The Scripps Research Institute, priority 2000, published 2003).
At least one structure is not confirmed: it was looked up by name or label, or the drawing left a doubt.

Tests used:
polynucleotides = assay: Binding constants of ethidium bromide and thiazole orange to polynucleotides (FIG. 10, first table)
Text: FIG. 10 is a table showing the binding constants of ethidium bromide and thiazole orange. […] The variation in the DNA used in the first table is much greater than that used in the second table which explains the greater variation in the ethidium bromide constants.

[1] = system: hairpin deoxyoligonucleotide; assay: Direct fluorescence titration of DAPI, Hoechst 33258, ethidium bromide or thiazole orange; type: binding; settings: FIG. 10, second table
Description: Direct Fluorescence Titration of DAPI, Hoechst 33258, Ethidium Bromide or Thiazole Orange. A 3 mL quartz cuvette was loaded with Tris buffer (0.1 M Tris, 0.1 M, NaCl, pH 8) and hairpin deoxyoligonucleotide (1.1 μM, 8.8 μM in bp final concentration). A solution of DAPI (excitation 372 nm; emission 454 nm; 2 μL, 0.1 mM in DMSO), Hoechst 33258 (excitation 358 nm; emission 454 nm; 2 μL, 0.1 mM in DMSO), ethidium bromide (excitation 545 nm; emission 595 nm; 2 μL, 0.5 mM in H2O) or thiazole orange (excitation 509 nm; emission 527 nm; 2 μL, 0.5 mM in DMSO) was added and the fluorescence was measured following 5 min of incubation at 23° C. The addition of 2 μL aliquots was continued until the system reached saturation and the fluorescence remained constant with subsequent additions.
Scatchard Analysis of the Titration Curve. The AF was plotted versus molar equivalents of agent and the ΔFsat was determined mathematically by solving the simultaneous equations representing the pre and post saturation regions of the titration curve. Utilizing equations (1)-(3) (FIG. 11), a Scatchard plot was generated where ΔF/[Free Agent] was plotted versus ΔF. The slope of the region immediately preceding complete saturation of the system provided −K.

With CC[n+]1c(-c2ccccc2)c2cc(N)ccc2c2ccc(N)cc21 [ethidium bromide] the “difference in binding constant between polynucleotides” value (polynucleotides) was roughly 60 fold and the “difference in binding constants between hairpins” value [1] was roughly 4 fold.
